These are yes or no findings as the source states them, for the method shown. Some results given as binding are weak or reduced against the parent protein; the word gives no strength. Tags and fused reporters may be left off the sequences shown.
T1: HAUS2 with C-terminal mGFP-TEV-TwinStrep tag (human) (UniProt Q9NVX0)
T1 sequence: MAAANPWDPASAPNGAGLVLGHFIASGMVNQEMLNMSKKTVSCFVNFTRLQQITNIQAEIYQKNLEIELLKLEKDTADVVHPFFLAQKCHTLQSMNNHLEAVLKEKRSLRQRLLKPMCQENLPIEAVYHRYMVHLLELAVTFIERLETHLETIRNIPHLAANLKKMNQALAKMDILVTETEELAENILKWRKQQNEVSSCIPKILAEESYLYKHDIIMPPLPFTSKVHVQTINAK


These molecules were tested against T1, HAUS2 with C-terminal mGFP-TEV-TwinStrep tag (human) (assay: co-purification).

| binding | Molecule |
| --- | --- |
| binds | HAUS7 (from UniProt Q99871-1 1-358) |
| binds | HAUS6 (protein, UniProt Q7Z4H7-1 1-955) MSSASVTAFEKEHLWMYLQALGFEPGPATIACGKIVSHTHLGVNMFDKLNRDAFHIISYFLFQVLDQSLTKEVFKFCWPPFDQKSDTEFRKHCCEWIKRISGECGSSFPQVVGSLFLSPGGPKFIHLMYHFARFVAMKYIKSNSKNSSHHFVETFNIKPQDLHKCIARCHFARSRFLQILQRQDCVTQKYQENAQLSVKQVRNLRSECIGLENQIKKMEPYDDHSNMEEKIQKVRSLWASVNETLMFLEKEREVVSSVLSLVNQYALDGTNVAINIPRLLLDKIEKQMFQLHIGNVYEAGKLNLLTVIQLLNEVLKVMKYERCQADQARLTVDLHYLEKETKFQKERLSDLKHMRYRIKDDLTTIRHSVVEKQGEWHKKWKEFLGLSPFSLIKGWTPSVDLLPPMSPLSFDPASEEVYAKSILCQYPASLPDAHKQHNQENGCRGDSDTLGALHDLANSPASFLSQSVSSSDRNSVTVLEKDTKMGTPKEKNEAISKKIPEFEVENSPLSDVAKNTESSAFGGSLPAKKSDPFQKEQDHLVEEVARAVLSDSPQLSEGKEIKLEELIDSLGSNPFLTRNQIPRTPENLITEIRSSWRKAIEMEENRTKEPIQMDAEHREVLPESLPVLHNQREFSMADFLLETTVSDFGQSHLTEEKVISDCECVPQKHVLTSHIDEPPTQNQSDLLNKKVICKQDLECLAFTKLSETSRMETFSPAVGNRIDVMGGSEEEFMKILDHLEVSCNKPSTNKTMLWNSFQISSGISSKSFKDNDFGILHETLPEEVGHLSFNSSSSSEANFKLEPNSPMHGGTLLEDVVGGRQTTPESDFNLQALRSRYEALKKSLSKKREESYLSNSQTPERHKPELSPTPQNVQTDDTLNFLDTCDLHTEHIKPSLRTSIGERKRSLSPLIKFSPVEQRLRTTIACSLGELPNLKEEDILNKSLDAKEPPSDLTR |
| binds | HAUS5 (protein, UniProt O94927-1 1-633) MELAQEARELGCWAVEEMGVPVAARAPESTLRRLCLGQGADIWAYILQHVHSQRTVKKIRGNLLWYGHQDSPQVRRKLELEAAVTRLRAEIQELDQSLELMERDTEAQDTAMEQARQHTQDTQRRALLLRAQAGAMRRQQHTLRDPMQRLQNQLRRLQDMERKAKVDVTFGSLTSAALGLEPVVLRDVRTACTLRAQFLQNLLLPQAKRGSLPTPHDDHFGTSYQQWLSSVETLLTNHPPGHVLAALEHLAAEREAEIRSLCSGDGLGDTEISRPQAPDQSDSSQTLPSMVHLIQEGWRTVGVLVSQRSTLLKERQVLTQRLQGLVEEVERRVLGSSERQVLILGLRRCCLWTELKALHDQSQELQDAAGHRQLLLRELQAKQQRILHWRQLVEETQEQVRLLIKGNSASKTRLCRSPGEVLALVQRKVVPTFEAVAPQSRELLRCLEEEVRHLPHILLGTLLRHRPGELKPLPTVLPSIHQLHPASPRGSSFIALSHKLGLPPGKASELLLPAAASLRQDLLLLQDQRSLWCWDLLHMKTSLPPGLPTQELLQIQASQEKQQKENLGQALKRLEKLLKQALERIPELQGIVGDWWEQPGQAALSEELCQGLSLPQWRLRWVQAQGALQKLCS |
| binds | HAUS3 (protein, UniProt Q68CZ6-1 1-603) MSCGNEFVETLKKIGYPKADNLNGEDFDWLFEGVEDESFLKWFCGNVNEQNVLSERELEAFSILQKSGKPILEGAALDEALKTCKTSDLKTPRLDDKELEKLEDEVQTLLKLKNLKIQRRNKCQLMASVTSHKSLRLNAKEEEATKKLKQSQGILNAMITKISNELQALTDEVTQLMMFFRHSNLGQGTNPLVFLSQFSLEKYLSQEEQSTAALTLYTKKQFFQGIHEVVESSNEDNFQLLDIQTPSICDNQEILEERRLEMARLQLAYICAQHQLIHLKASNSSMKSSIKWAEESLHSLTSKAVDKENLDAKISSLTSEIMKLEKEVTQIKDRSLPAVVRENAQLLNMPVVKGDFDLQIAKQDYYTARQELVLNQLIKQKASFELLQLSYEIELRKHRDIYRQLENLVQELSQSNMMLYKQLEMLTDPSVSQQINPRNTIDTKDYSTHRLYQVLEGENKKKELFLTHGNLEEVAEKLKQNISLVQDQLAVSAQEHSFFLSKRNKDVDMLCDTLYQGGNQLLLSDQELTEQFHKVESQLNKLNHLLTDILADVKTKRKTLANNKLHQMEREFYVYFLKDEDYLKDIVENLETQSKIKAVSLED |
| binds | HAUS4 (protein, UniProt Q9H6D7-1 1-363) MASGDFCSPGEGMEILQQVCSKQLPPCNLSKEDLLQNPYFSKLLLNLSQHVDESGLSLTLAKEQAQAWKEVRLHKTTWLRSEILHRVIQELLVDYYVKIQDTNVTSEDKKFHETLEQRLLVTELMRLLGPSQEREIPPLLGLEKADLLELMPLSEDFVWMRARLQQEVEEQLKKKCFTLLCYYDPNSDADSETVKAAKVWKLAEVLVGEQQQCQDAKSQQKEQMLLLEKKSAAYSQVLLRCLTLLQRLLQEHRLKTQSELDRINAQYLEVKCGAMILKLRMEELKILSDTYTVEKVEVHRLIRDRLEGAIHLQEQDMENSRQVLNSYEVLGEEFDRLVKEYTVLKQATENKRWALQEFSKVYR |
| binds | HAUS1 with C-terminal 3C-His6-tag (protein, UniProt Q96CS2-1 1-278) MEPQEERETQVAAWLKKIFGDHPIPQYEVNPRTTEILHHLSERNRVRDRDVYLVIEDLKQKASEYESEAKYLQDLLMESVNFSPANLSSTGSRYLNALVDSAVALETKDTSLASFIPAVNDLTSDLFRTKSKSEEIKIELEKLEKNLTATLVLEKCLQEDVKKAELHLSTERAKVDNRRQNMDFLKAKSEEFRFGIKAAEEQLSARGMDASLSHQSLVALSEKLARLKQQTIPLKKKLESYLDLMPNPSLAQVKIEEAKRELDSIEAELTRRVDMMEL |

— publication doi:10.1101/2023.02.19.529112
